Measurements from US20140303105A1, “Primycin and components thereof for use in the treatment or prevention of infections caused by specific pathogens” (PANNONPHARMA GYÓGYSZERGYÁRTÓ ZRT., priority 2011, published 2014).
Values after ≈ are worked out from the molar mass of the structure shown.

Tests used:
[1] = system: E. faecalis; test: Microdilution MIC, Enterococcus isolates with van resistance genes; assay type: cell-based
Description: (§1) Identification and characterization of resistance patterns of these bacteria were performed by standard methods.
(§2) When forming the test groups we attached great importance to the increasing incidence of drug-resistant microbes causing therapeutic problems. Most important of them are methicillin-resistant Staphylococcus aureus (MRSA), methicillin-resistant coagulase-negative Staphylococcus spp. (MRCoNS), penicillin-resistant Streptococcus pneumoniae (pneumococcus), vancomycin-resistant Enterococcus spp. (VRE). Pneumococcus isolates represented various serotypes, VRE isolates belonged to various species. Moreover, vancomycin-resistance of VRE isolates was based on different genetic backgrounds. Antibiotic-resistant strains were also represented among international reference strains, for example methicillin-resistant Staphylococcus aureus ATCC 43300 (MRSA), Staphylococcus aureus with decreased vancomycin susceptibility ATCC 700698 and 700699 (vancomycin intermediate Staphylococcus aureus—VISA), mupirocin-resistant Staphylococcus aureus ATCC BAA1708 and vancomycin-resistant Enterococcus faecalis ATCC 51299 (VRE).
(§3) Susceptibility tests were performed according to the standard microdilution method (NCCLS (CLSI) M7-A7).
(§4) The lowest concentration at which no bacterial growth was observed after the incubation period is the Minimal Inhibitory Concentration (MIC). The MIC value is inversely proportional to the antimicrobial efficacy. MIC values of antimicrobial agents can differ by species or even by bacterial strains within species.

[2] = system: E. faecium; test: as above; assay type: cell-based
Description: as §1, §2, §3, §4

Structure (SMILES): CN[C@H](CC(C)C)C(=O)N[C@H]1C(=O)N[C@@H](CC(N)=O)C(=O)N[C@H]2C(=O)N[C@H]3C(=O)N[C@H](C(=O)N[C@H](C(=O)O)c4cc(O)cc(O)c4-c4cc3ccc4O)[C@H](O)c3ccc(c(Cl)c3)Oc3cc2cc(c3O[C@@H]2O[C@H](CO)[C@@H](O)[C@H](O)[C@H]2O[C@H]2C[C@](C)(N)[C@H](O)[C@H](C)O2)Oc2ccc(cc2Cl)[C@H]1O [Vancomycin]
- MIC ([1]; resistance gene van A): > 32 µg/mL
- MIC ([1]; resistance gene van C1): 8 µg/mL (≈ 5.52 µM)
- MIC [2]: > 32 µg/mL
